Assay results published in patent US20160279215A1, “NOVEL PEPTIDES AND COMBINATION OF PEPTIDES FOR USE IN IMMUNOTHERAPY AGAINST VARIOUS TUMORS” (immatics biotechnologies GmbH, priority 2015, published 2016).

How the values were obtained:
Set-up in all cases: species or system human
[1] = test system: source genes of the peptides (mRNA) in tumor and normal tissue; assay: Expression profiling of source genes by RNAseq (target coverage); conditions: share of tumors with more than 1.5-fold over-expression vs highest-expressing relevant normal tissue; for Target coverage for source genes, AML (%): acute myeloid leukemia; for Target coverage for source genes, BRCA (%): breast cancer; for Target coverage for source genes, CLL (%): chronic leukemia (CLL); for Target coverage for source genes, OSCAR (%): esophageal cancer incl. gastric-oesophageal junction; for Target coverage for source genes, GBC_CCC (%): gallbladder adenocarcinoma and cholangiocarcinoma; for Target coverage for source genes, MEL (%): melanoma; for Target coverage for source genes, NHL (%): non-Hodgkin lymphoma; for Target coverage for source genes, OC (%): ovarian cancer; for Target coverage for source genes, SCLC (%): small cell lung cancer; for Target coverage for source genes, UBC (%): urinary bladder cancer; for Target coverage for source genes, UTC (%): uterine cancer
[2] = Identification and label-free relative LC-MS quantitation of HLA-presented peptides on tumor and normal tissue samples (XPRESIDENT presentation profiles); conditions: for Entities of particular interest: entities where the peptide was over-presented on cancer samples compared to normal tissues; for Additional entities of particular interest (presentation of selected peptides across entities): tumor entities on which the HLA-presented peptide was found, entity abbreviations defined in the title of Table 4B
[3] = test system: source genes of the peptides (mRNA) in tumor and normal tissue; assay: Expression profiling of source genes by Affymetrix microarrays (target coverage); conditions: over-expression = more than 1.5-fold higher expression on tumor vs. normal tissue with highest expression, gene with minimal coverage decisive; for Target coverage for source genes of selected peptides, BPHI/PCA (%): BPHI/PCA (prostate cancer) samples; for Target coverage for source genes of selected peptides, CRC (%): CRC tumor samples; for Target coverage for source genes of selected peptides, GB (%): GB tumor samples; for Target coverage for source genes of selected peptides, GC (%): GC tumor samples; for Target coverage for source genes of selected peptides, HCC (%): HCC tumor samples; for Target coverage for source genes of selected peptides, NSCLC (%): NSCLC tumor samples; for Target coverage for source genes of selected peptides, PC (%): PC tumor samples; for Target coverage for source genes of selected peptides, RCC (%): RCC tumor samples

Which “Target coverage for source genes, AML (%)” value (“Target coverage … AML (%)” below) [1] does the source give for “1: peptide found in CENPE (gene looked up) (KLQEKIQEL; listed as Homo sapiens) [compound 1]” here?
Its value is “I (<19% over-expression = I)”.

And the “Target coverage for source genes, BRCA (%)” value (“Target coverage … BRCA (%)” for short) [1]?
Its value is “I (<19% over-expression = I)”.

What about the “Target coverage for source genes, CLL (%)” value (shortened to “Target coverage … CLL (%)”) [1] of the same substance?
Its value is “I (<19% over-expression = I)”.

And the “Target coverage for source genes, OSCAR (%)” value (shortened to “Target coverage … OSCAR (%)”) [1]?
The value was “I (<19% over-expression = I)”.

What about the “Target coverage for source genes, GBC_CCC (%)” value (“Target coverage … GBC_CCC (%)” for short) [1] of the same substance?
The value was “I (<19% over-expression = I)”.

And the “Target coverage for source genes, MEL (%)” value (from here on “Target coverage … MEL (%)”) [1]?
Its value is “I (<19% over-expression = I)”.

What about the “Target coverage for source genes, NHL (%)” value (from here on “Target coverage … NHL (%)”) [1] of the same substance?
The value was “I (<19% over-expression = I)”.

What about the “Target coverage for source genes, OC (%)” value [1] of the same substance?
Its value is “I (<19% over-expression = I)”.

What about the “Target coverage for source genes, SCLC (%)” value [1] of the same substance?
Its value is “I (<19% over-expression = I)”.

And the “Target coverage for source genes, UBC (%)” value (from here on “Target coverage … UBC (%)”) [1]?
Its value is “I (<19% over-expression = I)”.

And the “Target coverage for source genes, UTC (%)” value (from here on “Target coverage … UTC (%)”) [1]?
Its value is “I (<19% over-expression = I)”.

And the “Entities of particular interest” value [2]?
The value was “GB, GC, NSCLC, HCC, OC, RCC, CRC, PC, OSCAR”.

And the “Additional entities of particular interest (presentation of selected peptides across entities)” value [2]?
The value was “MEL, AML, NHL”.

What about the “Target coverage for source genes of selected peptides, BPHI/PCA (%)” value [3] of the same substance?
Its value is “I (<19% over-expression = I)”.

What about the “Target coverage for source genes of selected peptides, CRC (%)” value [3] of the same substance?
The value was “II (20-49% = II)”.

And the “Target coverage for source genes of selected peptides, GB (%)” value [3]?
The value was “III (50-69% = III)”.

And the “Target coverage for source genes of selected peptides, GC (%)” value [3]?
Its value is “II (20-49% = II)”.

And the “Target coverage for source genes of selected peptides, HCC (%)” value [3]?
The value was “I (<19% over-expression = I)”.

What about the “Target coverage for source genes of selected peptides, NSCLC (%)” value [3] of the same substance?
The value was “II (20-49% = II)”.

And the “Target coverage for source genes of selected peptides, PC (%)” value [3]?
The value was “I (<19% over-expression = I)”.

What about the “Target coverage for source genes of selected peptides, RCC (%)” value [3] of the same substance?
Its value is “I (<19% over-expression = I)”.

Which results are given for “10: peptide found in KIF15 (gene looked up) (QLIEKNWLL; listed as Homo sapiens) [compound 10]”?
Target coverage for source genes, AML (%) [1]: I (<19% over-expression = I); Target coverage for source genes, BRCA (%) [1]: I (<19% over-expression = I); Target coverage for source genes, CLL (%) [1]: I (<19% over-expression = I); Target coverage for source genes, OSCAR (%) [1]: I (<19% over-expression = I); Target coverage for source genes, GBC_CCC (%) [1]: I (<19% over-expression = I); Target coverage for source genes, MEL (%) [1]: I (<19% over-expression = I); Target coverage for source genes, NHL (%) [1]: II (20-49% = II); Target coverage for source genes, OC (%) [1]: I (<19% over-expression = I); Target coverage for source genes, SCLC (%) [1]: II (20-49% = II); Target coverage for source genes, UBC (%) [1]: I (<19% over-expression = I); Target coverage for source genes, UTC (%) [1]: I (<19% over-expression = I); Entities of particular interest [2]: NSCLC, OC, CRC, PC, HCC, CLL, OSCAR; Additional entities of particular interest (presentation of selected peptides across entities) [2]: SCLC, UBC, UTC, BRCA, GBC_CCC, MEL, AML, NHL; Target coverage for source genes of selected peptides, BPHI/PCA (%) [3]: I (<19% over-expression = I); Target coverage for source genes of selected peptides, CRC (%) [3]: IV (>70% = IV); Target coverage for source genes of selected peptides, GB (%) [3]: IV (>70% = IV); Target coverage for source genes of selected peptides, GC (%) [3]: IV (>70% = IV); Target coverage for source genes of selected peptides, HCC (%) [3]: II (20-49% = II); Target coverage for source genes of selected peptides, NSCLC (%) [3]: III (50-69% = III); Target coverage for source genes of selected peptides, PC (%) [3]: II (20-49% = II); Target coverage for source genes of selected peptides, RCC (%) [3]: I (<19% over-expression = I)

Which results are given for “39: peptide found in PRIM2 (gene looked up) (YLEDGFAYV; listed as Homo sapiens) [compound 39]”?
Target coverage for source genes, AML (%) [1]: I (<19% over-expression = I); Target coverage for source genes, BRCA (%) [1]: II (20-49% = II); Target coverage for source genes, CLL (%) [1]: I (<19% over-expression = I); Target coverage for source genes, OSCAR (%) [1]: I (<19% over-expression = I); Target coverage for source genes, MEL (%) [1]: II (20-49% = II); Target coverage for source genes, OC (%) [1]: III (50-69% = III); Target coverage for source genes, SCLC (%) [1]: III (50-69% = III); Target coverage for source genes, UBC (%) [1]: I (<19% over-expression = I); Target coverage for source genes, UTC (%) [1]: I (<19% over-expression = I); Entities of particular interest [2]: GB, NSCLC, HCC, PC; Additional entities of particular interest (presentation of selected peptides across entities) [2]: CLL, UBC, UTC, MEL, NHL; Target coverage for source genes of selected peptides, BPHI/PCA (%) [3]: IV (>70% = IV); Target coverage for source genes of selected peptides, CRC (%) [3]: IV (>70% = IV); Target coverage for source genes of selected peptides, GB (%) [3]: II (20-49% = II); Target coverage for source genes of selected peptides, GC (%) [3]: IV (>70% = IV); Target coverage for source genes of selected peptides, HCC (%) [3]: I (<19% over-expression = I); Target coverage for source genes of selected peptides, NSCLC (%) [3]: III (50-69% = III); Target coverage for source genes of selected peptides, PC (%) [3]: II (20-49% = II); Target coverage for source genes of selected peptides, RCC (%) [3]: I (<19% over-expression = I)

For “235: peptide found in CLSPN (gene looked up) (SLLNQPKAV; listed as Homo sapiens) [compound 235]”, which “Target coverage … AML (%)” value [1] is on record?
Its value is “I (<19% over-expression = I)”.

And the “Target coverage … BRCA (%)” value [1]?
The value was “I (<19% over-expression = I)”.

And the “Target coverage … CLL (%)” value [1]?
The value was “I (<19% over-expression = I)”.

What about the “Target coverage … OSCAR (%)” value [1] of the same substance?
The value was “I (<19% over-expression = I)”.

What about the “Target coverage … GBC_CCC (%)” value [1] of the same substance?
Its value is “I (<19% over-expression = I)”.

And the “Target coverage … MEL (%)” value [1]?
The value was “I (<19% over-expression = I)”.

And the “Target coverage … NHL (%)” value [1]?
The value was “I (<19% over-expression = I)”.

And the “Target coverage for source genes, OC (%)” value [1]?
Its value is “II (20-49% = II)”.

And the “Target coverage for source genes, SCLC (%)” value [1]?
The value was “II (20-49% = II)”.

What about the “Target coverage … UBC (%)” value [1] of the same substance?
The value was “I (<19% over-expression = I)”.

What about the “Target coverage … UTC (%)” value [1] of the same substance?
Its value is “I (<19% over-expression = I)”.

What about the “Entities of particular interest” value [2] of the same substance?
The value was “GB, NSCLC, HCC, OC, MEL, CRC, PC, OSCAR”.

What about the “Additional entities of particular interest (presentation of selected peptides across entities)” value [2] of the same substance?
Its value is “SCLC, UBC, UTC, BRCA, GBC_CCC, AML, NHL”.

Which results are given for “246: peptide found in HSF2BP (gene looked up) (ALAGIVTNV; listed as Homo sapiens) [compound 246]”?
Target coverage for source genes, AML (%) [1]: I (<19% over-expression = I); Target coverage for source genes, BRCA (%) [1]: II (20-49% = II); Target coverage for source genes, CLL (%) [1]: I (<19% over-expression = I); Target coverage for source genes, OSCAR (%) [1]: I (<19% over-expression = I); Target coverage for source genes, GBC_CCC (%) [1]: II (20-49% = II); Target coverage for source genes, MEL (%) [1]: I (<19% over-expression = I); Target coverage for source genes, NHL (%) [1]: I (<19% over-expression = I); Target coverage for source genes, OC (%) [1]: III (50-69% = III); Target coverage for source genes, SCLC (%) [1]: I (<19% over-expression = I); Target coverage for source genes, UBC (%) [1]: II (20-49% = II); Target coverage for source genes, UTC (%) [1]: I (<19% over-expression = I); Entities of particular interest [2]: NSCLC, HCC, OC, MEL, RCC; Additional entities of particular interest (presentation of selected peptides across entities) [2]: GB, CLL, SCLC, BRCA, GBC_CCC, AML

Which “Target coverage … AML (%)” value [1] does the source give for “269: peptide found in FANCD2 (gene looked up) (GLLDCPIFL; listed as Homo sapiens) [compound 269]” here?
Its value is “I (<19% over-expression = I)”.

And the “Target coverage … BRCA (%)” value [1]?
Its value is “I (<19% over-expression = I)”.

What about the “Target coverage … CLL (%)” value [1] of the same substance?
Its value is “I (<19% over-expression = I)”.

And the “Target coverage … OSCAR (%)” value [1]?
Its value is “I (<19% over-expression = I)”.

And the “Target coverage … GBC_CCC (%)” value [1]?
Its value is “I (<19% over-expression = I)”.

And the “Target coverage … MEL (%)” value [1]?
Its value is “I (<19% over-expression = I)”.

What about the “Target coverage … NHL (%)” value [1] of the same substance?
Its value is “I (<19% over-expression = I)”.

And the “Target coverage for source genes, OC (%)” value [1]?
Its value is “I (<19% over-expression = I)”.

What about the “Target coverage for source genes, SCLC (%)” value [1] of the same substance?
The value was “I (<19% over-expression = I)”.

What about the “Target coverage … UBC (%)” value [1] of the same substance?
Its value is “I (<19% over-expression = I)”.

What about the “Target coverage … UTC (%)” value [1] of the same substance?
Its value is “I (<19% over-expression = I)”.

What about the “Entities of particular interest” value [2] of the same substance?
The value was “NSCLC, CRC, OSCAR, OC”.

What about the “Additional entities of particular interest (presentation of selected peptides across entities)” value [2] of the same substance?
Its value is “CLL, UTC, AML, NHL”.

For some of these results: Expression grades refer to the transcript from which the peptide derives; gene names, where given, were looked up from the sequence.
